In patent US20220332758A1, “PEPTIDE-BASED COMPOSITIONS AND METHODS FOR TREATING ALZHEIMER'S DISEASE” (Board of Regents, The Universityof Texas System, priority 2019, published 2022):
“Also recorded” adds a separate entry of the source. Part of at least one peptide drawing is inferred or uncertain, most often the ends. Where a SMILES comes first, the peptide text is derived from it. [ ]: non-standard residue; d: D form. ξ: configuration not given here. Tic = O=C(O)[C@@H]1Cc2ccccc2CN1; ξOic = O=C(O)C1CC2CCCCC2N1

Amino acid sequences for entries named in this document (tags omitted). A change or cut given only in a name is not applied to a line headed by its entry.
UniProt P25787: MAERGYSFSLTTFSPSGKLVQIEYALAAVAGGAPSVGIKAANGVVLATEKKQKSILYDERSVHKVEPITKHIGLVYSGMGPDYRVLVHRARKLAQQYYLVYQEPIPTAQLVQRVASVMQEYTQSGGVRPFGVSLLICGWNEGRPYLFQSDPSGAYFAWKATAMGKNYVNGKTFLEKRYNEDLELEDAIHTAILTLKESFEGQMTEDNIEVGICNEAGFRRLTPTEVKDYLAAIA
UniProt P60900: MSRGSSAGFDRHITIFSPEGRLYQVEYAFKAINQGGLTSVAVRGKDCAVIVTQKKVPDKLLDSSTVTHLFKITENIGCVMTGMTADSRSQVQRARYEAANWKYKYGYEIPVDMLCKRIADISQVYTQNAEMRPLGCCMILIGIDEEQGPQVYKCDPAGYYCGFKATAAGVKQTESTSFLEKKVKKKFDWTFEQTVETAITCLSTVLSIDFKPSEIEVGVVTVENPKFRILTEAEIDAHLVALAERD

Tests used:
[1] = target: T1, proteasome ChT-L activity in SK-N-SH (ATCC HTB-11) cells (Homo sapiens, UniProt P25787+P60900); assay: ChT-L proteasome activity in lysates of SK-N-SH cells treated with TAT peptides; type: cell-based; conditions: 1 μM, 24 h
T1 construct: host or cells: SK-N-SH human neuroblastoma cells
Procedure: Cell Culture. Human SK-N-SH neuroblastoma cell line (ATCC® HTB-11™ American Type Culture Collection; Manassas, Va.) were cultured according to ATCC specifications (EMEM, 10% heat-inactivated FBS) The cells at passage 2-4 were treated with 1 μM TAT peptides or the DMSO vehicle diluted with the medium 1: 1000, for 24 h. The content of live cells was determined by the Trypan Blue-exclusion assay. The cells were harvested, washed twice in PBS, resuspended in dilution buffer (as described herein) and stored in −80° C. To prepare lysates, the thawed preparations were vortexed with glass beads and centrifuged for 5 min 5,000×g (4° C.). The supernatant was centrifuged for 20 min 14,000×g (4° C.). The resulting supernatant—“crude lysate” was diluted to 1 mg/mL of total protein with dilution buffer. 1 μg of lysate per assay (reaction buffer: 50 mM Tris/HCl pH 8, 0.1 mM MgCl2, 0.2 mM ATP, 0.1 mM dithiothreitol, 50 μM Suc-LLVY-AMC (SEQ ID NO: 14)) was used for determination of ChT-L activity in a 96-well format, as above. Activities in lysates were also tested in the presence of a high concentration (1 μM) of a strong competitive proteasome inhibitor Bortezomib.

[2] = target: T2, latent human 20S proteasome (Homo sapiens, UniProt P25787+P60900); assay: Chymotrypsin-like (ChT-L) activity of purified latent human 20S proteasome, Suc-LLVY-AMC substrate; type: biochemical; conditions: for activation of ChT-L activity of 20S proteasome (in words): in vitro, latent human 20S
T2 construct: purified from erythrocytes; purchased Boston Biochem, Inc. or Enzo Life Sciences, Inc; host or cells: human erythrocytes
Procedure: Determination of Proteasome Activity. Human housekeeping core (20S) proteasome purified from erythrocytes was purchased from Boston Biochem, Inc. (Cambridge, Mass.) or from Enzo Life Sciences, Inc. (Farmingdale, N.Y.). […] The stock proteasome was diluted to 0.2 mg/mL working solution in “dilution buffer” (50 mM Tris/HCl, pH 8, 20% glycerol). The following model peptide substrates, releasing fluorescent 7-amino-4-methylcoumarin (AMC) reporter group after cleavage, were used: succinyl-LeuLeuValTyr-AMC (SEQ ID NO: 14) (for the ChT-L peptidase; SucLLVY-AMC; Bachem Bioscience Inc., Philadelphia, Pa.), butoxycarbonyl-LeuArgArg-AMC (T-L; Bachem Bioscience Inc., Philadelphia, Pa.) and carbobenzoxy-LeuLeuGlu-AMC (PGPH; Enzo Life Sciences Inc., Farmingdale, N.Y.). The substrates were used at concentration of 50 μM (ChT-L) or 100 μM (T-L, PGPH). Free AMC (Sigma-Aldrich, St. Louis, Mo.) was used as the standard. […] The TAT peptides, Rpt peptides (except Rpt6) and the peptide substrates were dissolved in anhydrous dimethylsulfoxide (DMSO; Sigma-Aldrich, St. Louis, Mo.) and such stock solutions were stored at −20° C. The total concentration of DMSO in final reaction mixtures never exceeded 3% (vol/vol). The Trp (tryptophan)-containing Rpt6 peptide was dissolved in ultrapure water and stored at −20° C., protected from light. The reaction was carried out in 96-well plates, in 100 μL of reaction mixture that consisted of 45 mM Tris/HCl, pH 8, 100 mM KCl, 1 mM EDTA (reaction buffer) and a fluorogenic peptide substrate, to which 200 ng (nearly […]) of proteasome were added. […] The proteasome was preincubated with a substrate for 10 min at room temperature, then 1 μL of DMSO or a desired concentration of a TAT peptide in 1 μL of DMSO were added. After mixing, the plate was transferred to a Fluoroskan Ascent plate reader (Thermo Fisher Scientific Inc., Waltham, Mass.) for 1 h (37° C.), with fluorescence readouts once per minute. To test the competition with Rpt derived peptides, the Rpt peptide (1 μM) was added before the TAT peptide to the reaction mixture. The reaction rates were calculated from a linear segment of kinetic curves constructed from measurements in 1-min intervals. Reaction rates were calculated using a linear fit performed with the Slope Analyser and Enzyme Kinetics applications launched within Origin Pro 2019 (OriginLab Corporation, Northampton, Mass.). […] The data are presented as mean±SD from at least three independent experiments.
Statistical Analysis. Experiments were performed at least in three independent replicates. The results are presented as a mean±SD. A two-tailed t-test was applied to compare the means. The comparisons were allowing for unequal variances with a Welch correction. Abundance of proteasome conformers was compared with the chi squared test and two-sample proportion test. A significance level was set at 0.05. Statistical analysis was performed using statistical procedures offered by OriginPro 2019 (OriginLabs, Northampton, Mass.). Reaction rates were calculated from a smoothed linear segment of kinetic traces using OriginPro 2019. Response curves (activity vs. compound concentration) were fitted with a nonlinear fitting application of OriginPro 2019. The AC50 and maximum activation fold was calculated based on the equations implemented to fit the response curves.

Row | SMILES | proteasome ChT-L activity in lysates from treated cells vs control lysates [1] | Max activation fold ± SE ([2]; Table 3, purified 20S proteasome in Tris/HCl buffer pH 8, ChT-L model substrate) [fold] | activation of ChT-L activity of 20S proteasome (in words) [2] | activation of ChT-L activity of 20S proteasome (in words) ([2]; listed as Tat1 51/55-TOD) | AC50 ([2]; read-out: AC50 [nM] ± SE, Table 3, purified 20S proteasome in Tris/HCl buffer pH 8, ChT-L model substrate) [nM] | activation of ChT-L activity of 20S proteasome (in words) ([2]; listed as 3A-TO-3A) | activation of ChT-L activity of 20S proteasome (in words) ([2]; listed as ATO)
1 | N=C(N)NCCC[C@H](NC(=O)CN)C(=O)N[C@@H](CCCCN)C(=O)N1Cc2ccccc2C[C@H]1C(=O)N1C(C(=O)N[C@@H](CCCNC(=N)N)C(=O)N[C@@H](CCC(N)=O)C(=O)N2Cc3ccccc3C[C@H]2C(=O)N2C(C(=O)N[C@@H](CCCNC(=N)N)C(=O)N3CCC[C@H]3C(=O)N[C@@H](CO)C(=O)O)CC3CCCCC32)CC2CCCCC21 (stereo partly drawn) [(2), R3-Tic-Oic-R4-Tic-D-Oic-R5] (H-GRK[Tic][ξOic]RQ[Tic][ξOic]RPS-OH; N-terminus and C-terminus assumed) | followed in cellulo their poor in vitro performance | 1.5 ± 0.26 | detrimental to the activation capability; also recorded: very poor activator | eliminated the activation | 1530 ± 208 | – | –
2 | C[C@H](N)C(=O)N[C@@H](C)C(=O)N[C@@H](C)C(=O)N1Cc2ccccc2C[C@H]1C(=O)N1C(C(=O)N[C@@H](C)C(=O)N[C@@H](C)C(=O)N[C@@H](C)C(=O)O)CC2CCCCC21 (some centres unmarked) [(7), R7-TicOic-R7] (H-AAA[Tic][ξOic]AAA-OH; N-terminus and C-terminus assumed) | – | – | no ability to activate the core proteasome | – | – | totally inactive | low
